Experimental data taken from paper PMC10163288.
This is one part of the list.

B1: il2ra_site1_2b5i_sap_16_mot_HHH_b2_03886_000000131_0001_1_17_H_._HHH_b2_08237_0001_0000100005_0000001_0_0001_af2pred_dldesign_0_af2pred (protein)
chain: SSSSSSPEVEEKVNAYKEAAAKEEDPLLRYKLLKLALKIAKKGNNEELVAELEKLLKELESSSSS
B2: il2ra_site2_3nfp_sap_21_mot_HHH_b1_06577_af2_000000152_0001_20_36_H_._HHH_b2_07686_0001_0000600063_0000001_0_0001 (protein)
chain: SSSSDEDEERVEKLIEEIERLLEEGDRDEAARLLLEATELAARINNDELARKLLELFLKIQSSSS
B3: il2ra_site2_3nfp_normal_mot_HHH_b1_03818_000000217_0001_1_20_H_._HHH_b2_04788_0001_0000100003_0000001_0 (protein)
chain: SSSSDLEEEALKLLIEAYKLAKEGNPEEARKLLERAEELAEEGGDEELLRLIELALEAFEDSSSS
B4: il2ra_site1_2b5i_normal_mot_a7d4ab743ae57deeac5d741f7278d18b_0001_af2_000000162_0001_36_49_H_._HHH_b2_01797_af2_0001_0000300004_0000001_0_af2pred_dldesign_0_af2 … (protein)
chain: SSSSSPESEEALEAAKRAMEAAHASGDAVLLYRVYKLAKKMLERLEDAEAVAALEEHYARLSSSS
B5: il2ra_site2_3nfp_sap_21_mot_HHH_b1_04032_000000208_0001_43_56_H_._HHH_b2_02520_af2_0001_0000400008_0000001_0_0001_af2pred_0001_1_af2pred_swapped (protein)
chain: SSSSSEEVEELIERVEELLKKGDVEEAHRVLRRAAKLAREAGDEELLEELWRLLELVRRLESSSS
B6: il2ra_site1_2b5i_normal_mot_HHH_b1_01495_af2_000000272_0001_42_56_H_._HHH_b1_03931_0001_0000200011_0000001_0 (protein)
chain: SSSSSSEEFEEVFEKARKIAEELNNPSAERFVELARESYEEDGDPRVLEDLEFMLERLEKSSSSS
B7: il2ra_site1_3nfp_sap_13_mot_HHH_b1_07440_af2_000000266_0001_1_19_H_._HHH_b2_07874_af2_0001_0000100006_0000001_1_0001_af2pred_0001_af2pred_1 (protein)
chain: DELEERVRELAEKGDNIQVAKLLDEVKRRVARGEIPPEDLRELLRIVLELLGDPAVEFMLRLVEE
B8: il2ra_site1_3nfp_sap_11_mot_HHH_b1_00630_af2_000000193_0001_42_55_H_._9d49f0d3562fbcf9434e2f7f4344708e_0001_0001_0000100002_0000001_0_0001_af2pred_0001_af2pred_ … (protein)
chain: SSSSDEARRAEELVKEISRLNLEGDPEKARELLRELEEIAKKLNSPIAELLVRRLEREIESSSSS
B9: il2ra_site2_2erj_sap_20_mot_HHH_b2_01275_af2_000000073_0001_23_39_H_._HHH_b2_07682_0001_0000700054_0000001_0_0001 (protein)
chain: SSSSNEELRELYELANEVMELAARGNPEEAEKVAEEAEELAKKLNSENAEEHLKALRKRLSSSSS
B10: il2ra_site2_3nfp_sap_20_mot_HHH_b1_01819_af2_000000097_0001_1_20_H_._640647f06b73f3c3f2841c6adbc5d152_0001_af2_0001_0000700025_0000001_0_0001 (protein)
chain: SSSSDEFKERAKRMIEAVIRSLRSLGDEETLERVEELLEQFEKEGDPRYALRIYELALEAYSSSS
B11: il2ra_site1_2b5i_normal_mot_f5ff40796168375b462bec8614a1db4a_0001_1_000000138_0001_53_65_H_._HHH_b2_04240_0001_0000100003_0000001_0 (protein)
chain: SSSSSTVEESVRDLLEEAQERYKEGDEERVRSILHLARASARRYNDEEAEELIKEVEEELSSSSS
B12: il2ra_site1_2b5i_normal_mot_0e5a94e4a5addaac739760efb25f0f5d_0001_000000246_0001_18_32_H_._HHH_b2_02424_0001_0000100006_0000001_0_af2pred_0001_af2pred_1 (protein)
chain: SSSSDDEERRKLRIVARAIFVLLAEGDEELVKELEELDRRASESGDPKYLEEALRLAEEILSSSS
B13: il2ra_site1_2b5i_normal_mot_f5ff40796168375b462bec8614a1db4a_0001_1_000000138_0001_53_65_H_._HHH_b1_06846_0001_0000400019_0000001_0 (protein)
chain: SSSSSNAEELAEELLEEAERLIEQGNEKEARSILHLARAVARRAGNEELLRRIEELLRELSSSSS
B14: il2ra_site2_2erj_normal_mot_HHH_b1_08185_000000063_0001_41_55_H_._HHH_b1_06795_af2_0001_0000100001_0000001_0 (protein)
chain: SSSSSEEEEELKRFIEELVREFGLSEEEKEKLEESARVALQAGLNVELIKRYLELAAEDSSSSSS
B15: il2ra_site2_3nfp_normal_mot_HHH_b1_00015_000000185_0001_19_35_H_._HHH_b1_07886_af2_0001_0000100002_0000001_0 (protein)
chain: SSSSSSEEVEKLLEEARELLEEGNPEEAHEVLSRAALIAYELGDQELWLKVAELILEILRSSSSS
B16: il2ra_site1_3nfp_normal_mot_HHH_b1_01159_af2_000000107_0001_1_20_H_._HHH_b1_07692_af2_0001_0000400008_0000001_0 (protein)
chain: SSSSNESEELERLFRRLFELAQNNDEEELEKLLEELEKLAEELNNRVAQIAVEQAKRILRSSSSS
B17: il2ra_site1_2b5i_sap_13_mot_HHH_b1_05658_000000212_0001_1_19_H_._c5c5405774e46e68d219586b833d645f_0001_0001_0000200008_0000001_1_0001_af2pred_0001_af2pred (protein)
chain: SSSSDLRREVLELLREADELFKKGDPEQAREVLEEARELAEKLNSPSLRRLIEAALRQIESSSSS
B18: il2ra_site2_2erj_sap_19_mot_HHH_b2_01275_af2_000000073_0001_23_39_H_._HHH_b1_03567_af2_0001_0000100005_0000001_0_0001 (protein)
chain: SSSSSEELEELYELANRLTHAVHNNDPEEVRELFRELEELAEEFGSDNVREIAEALLRKIESSSS

biological target: il2ra, P01589; assay: yeast display titration

Apparent Kd, inactive:
B1 no binding seen, B2 no binding seen, B3 no binding seen, B4 no binding seen, B5 no binding seen, B6 no binding seen, B7 no binding seen, B8 > 711 nM, B9 no binding seen, B10 no binding seen, B11 no binding seen, B12 no binding seen, B13 no binding seen, B14 no binding seen, B15 no binding seen, B16 no binding seen, B17 no binding seen, B18 no binding seen
